# Test results as given in patent publication US20200368205A1, “METHODS AND COMBINATION THERAPY TO TREAT CANCER” (ARRAY BIOPHARMA INC., priority 2018, published 2020).
# Some results were stated once for a whole list of compounds, not compound by compound.
# Tested on: KRas mutant CT26 syngeneic tumors
# Assay: Growth of KRas mutant CT26 murine colon syngeneic tumors
# Type: in vivo
# Settings: BALB/c mice, MEK162 30 mg/kg PO QD x14, anti-PD1 100 μg IP D 1, 4, 8, 11
# Description: 1% CMC/0.5% Tween-80 (CMCT) was prepared by adding 960 mL of distilled water to a 1000 mL Pyrex® glass bottle with a stir bar in the bottom, and was used as the oral vehicle. The water was warmed to 50-60° C. then 5 mL Tween® 80 (polyoxyethylenesorbitan monooleate, Sigma P2287, batch #054K0154) and 15.6 mL benzyl alcohol (Sigma 402834, Batch #00296PK) added. Carboxymethylcellulose (5 g, CMC, low viscosity, Sigma C5678, Batch #033K0008) was added slowly, over one hour. The solution was stirred until the CMC dissolved and the solution was clear. 30 mg/kg MEK162 (Binimetinib, 100% active) was prepared as a white, homogeneous suspension in CMCT. MEK162 was administered in 10 mL/kg and dosed at 30 mg/kg (3.0 mg/mL) by oral gavage. To prepare, dry test compound (90 mg) was weighed and 30 mL CMCT added. Dose suspension was sonicated until a fine suspension was achieved (˜15 min). […]
# The combination was evaluated as concomitant administration or sequential where MEK162 treatment was initiated at the time that tumor resistance from anti-PD1 treatment emerged. […]
# Animals were monitored for tumor growth and body weight 2-3 times per week based on outgrowth kinetics. Tumor diameter was measured with digital calipers, and the tumor volume in mm^3 was calculated by the formula: Volume=((width)^2×length)/2. […]
smiles,measurement,value
"Cn1cnc2c(F)c(Nc3ccc(Br)cc3F)c(C(=O)NOCCO)cc21 [Binimetinib, 6-(4-bromo-2-fluorophenylamino)-7-fluoro-3-methyl-3H-benzoimidazole-5-carboxylic acid (2-hydroxyethoxy)-amide]",% TGI (Day 13),< 50%
